We go through 42 sequences from article PMC7819943, “Rice protein-binding microarrays: a tool to detect cis-acting elements near promoter regions in rice”.

The chains behind the UniProt entries cited, without tags or fusion partners.
UniProt Q0JBA9, entry or part of it: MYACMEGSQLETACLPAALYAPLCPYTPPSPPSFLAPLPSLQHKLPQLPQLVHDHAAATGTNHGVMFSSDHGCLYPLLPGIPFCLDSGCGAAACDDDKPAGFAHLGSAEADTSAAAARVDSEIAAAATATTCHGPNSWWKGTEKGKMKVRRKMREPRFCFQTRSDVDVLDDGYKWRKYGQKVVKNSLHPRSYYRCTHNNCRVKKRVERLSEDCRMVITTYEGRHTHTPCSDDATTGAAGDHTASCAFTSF

This is one part of the list.

The assay addresses OsWRKY34 (Oryza sativa, UniProt Q0JBA9 1-250). Nature of the assay: protein-binding microarray (RPBM); PBS, 2% BSA, 51.3 ng/ul salmon testes DNA, 50 uM zinc acetate, 200 nM TF, 25 C, 1 h; high values mean tight binding. Conditions: protein: recombinant; tags: N-terminal polyhistidine and DsRed monomer fusion (pET32a); label: CyDye5-dUTP incorporated in the synthesized complementary strand; 3' TTTTT single-stranded linker to array surface; dsDNA, one strand shown. The essentials: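 In PBS with 2% BSA, salmon testes DNA and 50 µM zinc acetate, 200 nM protein was incubated on a custom Agilent array at 25 °C for 1 h and then washed off. The array had been made double-stranded by primer extension with Cy5-dUTP and blocked with 2% BSA. The proteins were transcription factors fused N-terminally to polyhistidine and DsRed, expressed in E. coli BL21-CodonPlus and purified on Ni–NTA. The binding signal is per-feature fluorescence intensity (arbitrary units) from an Axon 4000B scanner.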
In the case of “CCACGCGCCCATCCACTCACCGGTCCATGCACCCGGTCTACGGAGTCACCTAGTGCAG”, the binding signal was 8740 fluorescence intensity (a.u.).
The result for “TCACTAAAGGCTAAAATCTAACATGTTGTAGTCTATTTATCGGAGTCACCTAGTGCAG” reads 8070 fluorescence intensity (a.u.); that for “ATCATATTCCTACGTTTTCCTGTTGGTGCGGTTCAAAAAACGGAGTCACCTAGTGCAG”, 9250 fluorescence intensity (a.u.).
As for “CGATCTGGCCACGGCACTCCGCTTCTCTCTTCTCCTCTACCGGAGTCACCTAGTGCAG”, the figure is 13700 fluorescence intensity (a.u.); as for “CTGCGCTGCCCGATTTCCATCCATCCCGCTTCCGCCTCCGCGGAGTCACCTAGTGCAG”, 10600 fluorescence intensity (a.u.).
As for “ACCAGCTTTCTTTCTCGTGCTTTCCTCTTCTTCTTTTTTTCGGAGTCACCTAGTGCAG”, the figure is 10900 fluorescence intensity (a.u.).
Take “GTAATCGCAGAGGCAGGTCATCGTCGGATTTGATCTTGACCGGAGTCACCTAGTGCAG”: the binding signal is 14400 fluorescence intensity (a.u.).
The result for “CTCCTAGGTGGCGTCGCCTTAGGTAGTGGTGGATGGGGAGCGGAGTCACCTAGTGCAG” reads 10000 fluorescence intensity (a.u.).
The result for “AAGATAAATCATTCCACTACTGCTCTTCTCATATCTAACCCGGAGTCACCTAGTGCAG” reads 9700 fluorescence intensity (a.u.).
As for “ATGACTTTATAACATTTTTGCATCATCACACTTCATATAACGGAGTCACCTAGTGCAG”, the figure is 11100 fluorescence intensity (a.u.); as for “CACCACACGTACGCTACCTTATCAGATCCGAATCAGAATACGGAGTCACCTAGTGCAG”, 9980 fluorescence intensity (a.u.); as for “GCCCACGCACGGCTGGCCCTGCTTCTCACTCCTTTCTCTTCGGAGTCACCTAGTGCAG”, 9890 fluorescence intensity (a.u.).
Turning to “CAGAGTCCACAGCAATGGTTTTTGGAGAGTTGTTCAGCCGCGGAGTCACCTAGTGCAG”, the binding signal is 8370 fluorescence intensity (a.u.).
For the sequence “ATCTTTGCAAAGTACTAGAGCATATTTCTGTCGTCAAGCACGGAGTCACCTAGTGCAG”, the binding signal is 8660 fluorescence intensity (a.u.).
“CTCTTTCACTCGCTCACCTGCTCCATGCTCGTCCAGTACTCGGAGTCACCTAGTGCAG”: the binding signal is 9490 fluorescence intensity (a.u.).
For “CTATGGGCAAACTAATAGCTTCATCTTTTCGCTTATACTTCGGAGTCACCTAGTGCAG”, the binding signal is 9550 fluorescence intensity (a.u.).
For “CATTTTGTTTCTACTTTGAGTAATGTTGCTTCTGTTTATACGGAGTCACCTAGTGCAG”, the binding signal is 11100 fluorescence intensity (a.u.).
As for “TTCCTGTGTTTTGTAATCCTCTGTTTTACAATTGTATTCCCGGAGTCACCTAGTGCAG”, the figure is 9820 fluorescence intensity (a.u.); as for “CATTTAATTATACGCCTCGCTCACTAGCTTAACTGCTAATCGGAGTCACCTAGTGCAG”, 8700 fluorescence intensity (a.u.).
Take “CACCCGCCGCTGCTCTGCCTACTCGCCGGCCACCTCCTCACGGAGTCACCTAGTGCAG”: the binding signal is 15500 fluorescence intensity (a.u.).
As for “TTTTCTTTTGTACTCTTCTCAATTGTTTATTACGACTGTTCGGAGTCACCTAGTGCAG”, the figure is 9860 fluorescence intensity (a.u.); as for “GTGTGTTCGTTTCTTTCTGGCCGTTGGATCGCGGATGGGCCGGAGTCACCTAGTGCAG”, 8700 fluorescence intensity (a.u.); as for “TAAAGCTGCTTGGTTTTGCTTCTGTAATCTGTACCACGTTCGGAGTCACCTAGTGCAG”, 9370 fluorescence intensity (a.u.).
For “TGTTCTGTGTTCGTGTTTGGGATTGGGCGCGGCGTGTGCCCGGAGTCACCTAGTGCAG”, the binding signal was 8470 fluorescence intensity (a.u.).
The result for “CTCTGTGTTCTTGGTGTTCCCTGTGCTGTTCTTGGGCAAGCGGAGTCACCTAGTGCAG” reads 9330 fluorescence intensity (a.u.); that for “ATTGTTTTTGGTCATTGATCATCACTCTGGTTAACTGGTCCGGAGTCACCTAGTGCAG”, 8730 fluorescence intensity (a.u.).
As for “TTCTAACTTTTCCGTCACATAAAATGTTTGGACACATATACGGAGTCACCTAGTGCAG”, the figure is 8460 fluorescence intensity (a.u.).
Consider “GCCCTACGCCGCCAAGCCCATGTTGCCCCTATGCCACCTGCGGAGTCACCTAGTGCAG”, for which the binding signal is 8350 fluorescence intensity (a.u.).
As for “CGGGCGCACGTGTTTCATCCCTCTAATTCTGAATCCCCACCGGAGTCACCTAGTGCAG”, the figure is 8270 fluorescence intensity (a.u.).
In the case of “ATATTTCAACAGACTTTTAAAAAAGTTTTTATTGTTTGACCGGAGTCACCTAGTGCAG”, the binding signal is 8380 fluorescence intensity (a.u.).
The result for “GTGTTTGCATTGGAAGAGTAATGTTTAGTACTAGTTTCTCCGGAGTCACCTAGTGCAG” reads 8510 fluorescence intensity (a.u.).
Consider “TGTACTAGAATATGTCACATCCAGTCTTAGATTCGTTTTTCGGAGTCACCTAGTGCAG”, for which the binding signal was 9120 fluorescence intensity (a.u.).
As to “TGTTGTTGCCGGAATGTGTGTGTGTGCGTGTGTGTGTGTGCGGAGTCACCTAGTGCAG”, the binding signal was 8720 fluorescence intensity (a.u.).
Regarding “ATGTGTAATCAATATTTTTTTATGTGAAATTTGCACGTATCGGAGTCACCTAGTGCAG”, the binding signal is 8380 fluorescence intensity (a.u.).
As for “CTTGCACGCGACGGCCTGGCATTTGTGTACGGCACCGCCCCGGAGTCACCTAGTGCAG”, the figure is 8030 fluorescence intensity (a.u.).
As for “CGCCGCCTTTGCCACTATCGCTCCCTCCTCCAGCCGGATCCGGAGTCACCTAGTGCAG”, the figure is 10600 fluorescence intensity (a.u.).
As for “ACTTGTGCCGATCTCGTGTAGTTTGAATTTTCCGCAAAACCGGAGTCACCTAGTGCAG”, the figure is 8230 fluorescence intensity (a.u.).
As to “CACTACGATTATACTGTAATTACATCTATCAAATTTTTAACGGAGTCACCTAGTGCAG”, the binding signal was 8650 fluorescence intensity (a.u.).
For the sequence “TCATTGACTTTTCGATCAACGTTTGACCATTTGTTTTATTCGGAGTCACCTAGTGCAG”, the binding signal was 16700 fluorescence intensity (a.u.).
The result for “CAAAGCAATCTTGGAGTCATCTTCATTTCCATGTCCTGTTCGGAGTCACCTAGTGCAG” reads 11600 fluorescence intensity (a.u.); that for “TCACACAGTCACTTGTTGGGTCTTTGCAATTGCTTTCCTCCGGAGTCACCTAGTGCAG”, 8610 fluorescence intensity (a.u.).
“ATCTTAATTTTATGATATGACGTTTTATTCTGTACTATCTCGGAGTCACCTAGTGCAG”: the binding signal was 8930 fluorescence intensity (a.u.).
